Results are given in words; binding and its absence hold for the method and conditions named. Binding calls can cover weak binding; strength is not graded here.
Assays:
Assay in all cases: two-hybrid; GAL4-based Matchmaker Two-Hybrid System 3 (Clontech); DNA-binding domain fusions (pGBK-T7) in Y2HGOLD mated with activation domain fusions (pGAD-T7) in Y187; growth on SD-Trp-Leu-His-Ade and blue colour on SD-Trp-Leu-His-Ade + X-alpha-Gal
[1] = target: NnbHLH1 (bHLH transcription factor of Nelumbo nucifera), GAL4 DNA-binding domain fusion (Nelumbo nucifera)
[2] = target: NlbHLH1 (bHLH transcription factor of Nelumbo lutea), GAL4 DNA-binding domain fusion (Nelumbo lutea)
[3] = target: NnTTG1 (WD40 protein of Nelumbo nucifera), GAL4 DNA-binding domain fusion (Nelumbo nucifera)

| Substance | binding [1] | binding [2] | binding [3] |
| --- | --- | --- | --- |
| NnMYB5 (R2R3-MYB transcription factor of Nelumbo nucifera), GAL4 activation domain fusion (from UniProt A0A1L2BPG4) | binds | binds | binds |
| NnTTG1 (WD40 protein of Nelumbo nucifera), GAL4 activation domain fusion (from UniProt A0A1L2BPH2) | binds | binds |  |
